{"source": "PubChem BioAssay AID504714", "about": "(Sanford-Burnham Center for Chemical Genomics, 2011)", "note": "The whole screen tested about 1,000 compounds, of which fewer than 10 were called active. How the calls were made is not given here. The list shows a part of the results, in another mix than the full data."}
{"assay": "uracil-DNA glycosylase inhibition, oligo cleavage readout – biochemical, single concentration, fluorescence, FAM/TAMRA oligo, counter-screen for APOBEC3A inhibitor project, confirmation (AID 504714)", "conditions": "UDG counterscreen, at 20 µM, hits give high values"}
{"smiles": "O=C(O)CCn1cc(C=C2C(=O)NC(=S)NC2=O)c(-c2cccc(Br)c2)n1", "inhibition": "inactive: 4.11%"}
